Values from PubChem BioAssay AID1259424 (University of Nebraska Medical Center, 2018).
In all, the deposit lists about 14,000 reagents; below is a part drawn at random. 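Higher correlation or smaller distance means closer resemblance to KSR1 loss; control wells, including KSR1 knockdowns, recur on many plates.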 Not all columns of the deposit are shown. No sequences are given here. Not stated in the record: the time to read-out.

- Assay: 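Find knockdowns that reproduce the expression shifts seen after KSR1 loss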 (primary screen)
- Cells: human HCT116 colon cancer cells
- Knock-down reagent: siRNA pool against human genes, 50 nM
- Measured: 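Six signature mRNAs by branched-DNA multiplex assay, scaled to two housekeeping genes and non-targeting median, log2; matched to mean KSR1 knockdown profile by Pearson correlation and euclidean distance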
- Scale: mean correlation with KSR1 profile: higher = expression change more like KSR1 knockdown; mean distance from KSR1 profile: higher = expression change less like KSR1 knockdown

KCNE3 (GeneID 10008) → mean correlation with KSR1 profile: 0.535; mean distance from KSR1 profile: 1.09
TRAPPC11 (GeneID 60684) → mean correlation with KSR1 profile: -0.334; mean distance from KSR1 profile: 2.46
RIPOR1 (GeneID 79567) → mean correlation with KSR1 profile: -0.00931; mean distance from KSR1 profile: 3.17
NTAQ1 (GeneID 55093) → mean correlation with KSR1 profile: -0.344; mean distance from KSR1 profile: 4.07
CALCOCO2 (GeneID 10241) → mean correlation with KSR1 profile: -0.864; mean distance from KSR1 profile: 2.08
HUWE1 (GeneID 10075) → mean correlation with KSR1 profile: -0.614; mean distance from KSR1 profile: 1.49
AMT (GeneID 275) → mean correlation with KSR1 profile: -0.678; mean distance from KSR1 profile: 3.4
GRN (GeneID 2896) → mean correlation with KSR1 profile: -0.22; mean distance from KSR1 profile: 2.4
MRPL40 (GeneID 64976) → mean correlation with KSR1 profile: -0.6; mean distance from KSR1 profile: 2.31
CORO6 (GeneID 84940) → mean correlation with KSR1 profile: 0.415; mean distance from KSR1 profile: 2.23
THBS2 (GeneID 7058) → mean correlation with KSR1 profile: -0.104; mean distance from KSR1 profile: 2
IFT56 (GeneID 79989) → mean correlation with KSR1 profile: 0.00544; mean distance from KSR1 profile: 2.07
